Test results: patent publication US8927548B2, “Triazole compounds that modulate HSP90 activity” (Synta Pharmaceuticals Corp., priority 2006, dated 2015)
Some entries share one result that the patent states for a list of compounds.

System: Hsp90
Assay: Degradation of Her2 / inhibition of Hsp90, Method 2: MV-4-11 cell survival after 72 hours (Cell Counting Kit-8)
Type: cell-based, human
Conditions: Table 4, IC50 range, MV-4-11 cells
Experimental: MV-4-11 cells (20,000 cells/well) were cultured in 96-well plates and maintained at 37° C. for several hours. The cells were treated with a compound of the invention or 17AAG (a positive control) at various concentrations and incubated at 37° C. for 72 hours. Cell survival was measured with Cell Counting Kit-8 (Dojindo Laboratories, Cat. # CK04). […] Tables 4-6: IC50 range of compounds of the invention for inhibition of Hsp90

Row | Compound | IC50
1 | CCc1cc(-c2nnc(S)n2-c2ccc3ncsc3c2)c(O)cc1O [Compound 31, 4-(4-Benzothiazol-6-yl-5-mercapto-4H-[1,2,4]triazol-3-yl)-6-ethyl-benzene-1,3-diol] | > 1000 nM
2 | CC(C)c1cc(-c2nnc(S)n2-c2ccc3ncn(C)c3c2)c(O)cc1O [Compound 32, 4-Isopropyl-6-[5-mercapto-4-(3-methyl-3H-benzoimidazol-5-yl)-4H-[1,2,4]triazol-3-yl]-benzene-1,3-diol] | > 1000 nM
3 | CC(C)c1cc(-c2nnc(S)n2-c2ccc3c(c2)ncn3C)c(O)cc1O [Compound 33, 4-Isopropyl-6-[5-mercapto-4-(1-methyl-1H-benzoimidazol-5-yl)-4H-[1,2,4]triazol-3-yl]-benzene-1,3-diol] | < 300 nM
4 | CCc1cc(-c2nnc(S)n2-c2ccc3[nH]c(C)nc3c2)c(O)cc1O [Compound 34, 4-Ethyl-6-[5-mercapto-4-(2-methyl-1H-benzoimidazol-5-yl)-4H-[1,2,4]triazol-3-yl]-benzene-1,3-diol] | > 1000 nM
5 | CCc1cc(-c2nnc(S)n2-c2ccc3nn[nH]c3c2)c(O)cc1O [Compound 35, 4-[4-(3H-Benzotriazol-5-yl)-5-mercapto-4H-[1,2,4]triazol-3-yl]-6-ethyl-benzene-1,3-diol] | > 1000 nM
6 | CC(C)c1cc(-c2nnc(O)n2-c2ccc3c(c2)CCC3)c(O)cc1O [Compound 38, 4-(2,3-Dihydro-1H-inden-5-yl)-3-(2,4-dihydroxy-5-isopropylphenyl)-1H-1,2,4-triazol-5(4H)-one] | < 75 nM
7 | COCOC1Cc2ccc(-n3c(O)nnc3-c3cc(C(C)Cc4ccc(F)cc4)c(O)cc3O)cc2C1 (stereo not shown) [Compound 41, 3-(5-(1-(4-fluorophenyl)propan-2-yl)-2,4-dihydroxyphenyl)-4-(2-(methoxymethoxy)-2,3-dihydro-1H-inden-5-yl)-1H-1,2,4-triazol-5(4H)-one] | < 300 nM
8 | CC(Cc1ccc(F)cc1)c1cc(-c2nnc(O)n2-c2ccc3c(c2)CC(N2CCCC2)C3)c(O)cc1O (stereo not shown) [Compound 42, 3-(5-(1-(4-Fluorophenyl)propan-2-yl)-2,4-dihydroxyphenyl)-4-(2-(pyrrolidin-1-yl)-2,3-dihydro-1H-inden-5-yl)-1H-1,2,4-triazol-5(4H)-one] | < 300 nM
9 | COC1Cc2ccc(-n3c(S)nnc3-c3cc(CCc4ccc(F)cc4)c(O)cc3O)cc2C1 (stereo not shown) [Compound 43, 3-(5-(4-fluorophenethyl)-2,4-dihydroxyphenyl)-4-(2-methoxy-2,3-dihydro-1H-inden-5-yl)-1H-1,2,4-triazole-5(4H)-thione] | > 1000 nM
10 | CC(C)c1cc(-c2nnc(O)n2-c2ccc3c(c2)CCN3S(C)(=O)=O)c(O)cc1O [Compound 44, 3-(2,4-Dihydroxy-5-isopropylphenyl)-4-(1-(methylsulfonyl)indolin-5-yl)-1H-1,2,4-triazol-5(4H)-one] | < 300 nM
11 | CC(C)c1cc(-c2nnc(O)n2-c2ccc3c(c2)CC(N2CCOCC2)C3)c(O)cc1O (stereo not shown) [Compound 45, 3-(2,4-Dihydroxy-5-isopropylphenyl)-4-(2-morpholino-2,3-dihydro-1H-inden-5-yl)-1H-1,2,4-triazol-5(4H)-one] | < 75 nM

Same assay, conditions: Table 5, IC50 range, MV-4-11 cells

Row | Compound | IC50
12 | Cn1ccc2cc(-n3c(O)nnc3-c3cc(CCc4ccc(Cl)cc4)c(O)cc3O)ccc21 [Compound 38a, 4-(4-chlorophenethyl)-6-(5-hydroxy-4-(1-methyl-1H-indol-5-yl)-4H-1,2,4-triazol-3-yl)benzene-1,3-diol] | < 175 nM
13 | CC(Cc1ccc(F)cc1)c1cc(-c2nnc(O)n2-c2ccc3c(ccn3C)c2)c(O)cc1O (stereo not shown) [Compound 39a, 4-(4-fluorophenethyl)-6-(5-hydroxy-4-(1-methyl-1H-indol-5-yl)-4H-1,2,4-triazol-3-yl)benzene-1,3-diol] | < 175 nM
14 | Cn1ccc2cc(-n3c(O)nnc3-c3cc(CCc4ccc(F)cc4F)c(O)cc3O)ccc21 [Compound 40a, 4-(2,4-difluorophenethyl)-6-(5-hydroxy-4-(1-methyl-1H-indol-5-yl)-4H-1,2,4-triazol-3-yl)benzene-1,3-diol] | < 775 nM
15 | Cn1ccc2cc(-n3c(O)nnc3-c3cc(CCc4cc(F)ccc4F)c(O)cc3O)ccc21 [Compound 41a, 4-(2,5-difluorophenethyl)-6-(5-hydroxy-4-(1-methyl-1H-indol-5-yl)-4H-1,2,4-triazol-3-yl)benzene-1,3-diol] | < 500 nM
16 | Cn1ccc2cc(-n3c(O)nnc3-c3cc(CCc4cc(F)cc(F)c4)c(O)cc3O)ccc21 [Compound 42a, 4-(3,5-difluorophenethyl)-6-(5-hydroxy-4-(1-methyl-1H-indol-5-yl)-4H-1,2,4-triazol-3-yl)benzene-1,3-diol] | < 775 nM
